Measured values from patent US9643993B2, “Crystalline polymorphic form of ulipristal acetate” (ASKA PHARMACEUTICAL CO., LTD., priority 2012, dated 2017).
Some results were stated once for a whole list of compounds, not compound by compound. For at least one compound, name, drawing or mass did not settle the structure.

Test: Solubility in ethanol/water (10/90) mixed solvent at 37° C.
Conditions: ethanol/water 10/90, 37° C.; summary of Table 4

## CC(=O)O[C@]1(C(C)=O)CCC2C3CCC4=CC(=O)CCC4=C3[C@@H](c3ccc(N(C)C)cc3)C[C@@]21C (stereo partly drawn) [Example 2, 17alpha-acetoxy-11beta-(4-N,N-dimethylaminophenyl)-19-norpregna-4,9-diene-3,20-dione]
  Solubility compared with Comparative Example (in words): significantly high solubility
